The other results are listed elsewhere or left out.
Key:
Experiment in all cases: log2 fold change, soluble protein after heating vs DMSO (PISA); higher = thermal stabilisation; K562 cells, 10 uM, 30 min; active = over 0.2 and 3.5 SD of the protein, either way, in both replicates (recomputed)
[1] = compound: Cc1cccc(CC(=O)N2CCc3c2ccc(-c2cn(C)c4ncnc(N)c24)c3F)n1
Method in brief: (§1)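 Values are thermal stability changes relative to control samples and are taken from duplicates. They are stated as log2 fold changes. Before quantification by TMTpro 16plex LC-MS/MS with equalised channel sums, K562 cells at 2×10^6 cells/mL were treated with 10 μM compound for 30 min, heated in aliquots for 3 min across 48°C-58°C, pooled, extracted in PBS with 0.5% NP-40 at 4°C, and centrifuged at 21,000xg for 90 min to give the soluble supernatant.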

Protein sequences, listed by entry. Tags and fused reporters are not part of them. Lines headed by an entry give the natural chain unless they say otherwise; changes in a name come on top.
UniProt Q9UPW5: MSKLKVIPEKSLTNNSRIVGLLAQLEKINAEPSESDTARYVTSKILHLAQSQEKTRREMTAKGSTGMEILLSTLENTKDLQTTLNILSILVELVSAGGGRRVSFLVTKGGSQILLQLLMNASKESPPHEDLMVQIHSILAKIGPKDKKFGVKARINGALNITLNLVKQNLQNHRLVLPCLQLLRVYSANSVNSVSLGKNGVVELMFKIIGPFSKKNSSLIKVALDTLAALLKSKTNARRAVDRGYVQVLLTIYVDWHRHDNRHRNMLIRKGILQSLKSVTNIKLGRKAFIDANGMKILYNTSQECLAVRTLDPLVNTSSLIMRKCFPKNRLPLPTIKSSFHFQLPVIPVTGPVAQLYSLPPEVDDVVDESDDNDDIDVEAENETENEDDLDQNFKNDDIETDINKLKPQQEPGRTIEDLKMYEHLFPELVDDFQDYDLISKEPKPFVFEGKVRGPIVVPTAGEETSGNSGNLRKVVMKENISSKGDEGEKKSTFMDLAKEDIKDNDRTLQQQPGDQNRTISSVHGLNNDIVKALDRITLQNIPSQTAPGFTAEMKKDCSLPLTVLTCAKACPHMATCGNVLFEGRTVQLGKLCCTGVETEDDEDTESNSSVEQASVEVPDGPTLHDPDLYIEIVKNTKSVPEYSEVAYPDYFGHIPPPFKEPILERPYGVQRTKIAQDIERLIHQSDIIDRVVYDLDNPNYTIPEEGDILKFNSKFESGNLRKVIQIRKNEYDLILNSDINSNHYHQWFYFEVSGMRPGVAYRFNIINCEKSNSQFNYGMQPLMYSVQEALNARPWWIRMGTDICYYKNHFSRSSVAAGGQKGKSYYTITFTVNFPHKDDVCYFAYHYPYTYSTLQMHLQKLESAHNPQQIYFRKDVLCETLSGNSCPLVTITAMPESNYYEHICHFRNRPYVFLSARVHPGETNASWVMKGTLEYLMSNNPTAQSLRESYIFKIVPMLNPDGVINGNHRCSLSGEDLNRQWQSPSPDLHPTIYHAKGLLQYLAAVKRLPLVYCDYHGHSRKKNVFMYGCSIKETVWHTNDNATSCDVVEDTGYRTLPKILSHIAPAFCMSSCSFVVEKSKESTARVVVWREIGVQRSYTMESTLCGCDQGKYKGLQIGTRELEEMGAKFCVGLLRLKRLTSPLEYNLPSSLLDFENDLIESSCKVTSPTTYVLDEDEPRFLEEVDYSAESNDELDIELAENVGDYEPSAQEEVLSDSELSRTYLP
UniProt Q9BS18, whole entry, looked up: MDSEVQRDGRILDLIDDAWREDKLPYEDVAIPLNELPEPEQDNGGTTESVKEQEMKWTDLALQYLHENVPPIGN
UniProt Q86W34: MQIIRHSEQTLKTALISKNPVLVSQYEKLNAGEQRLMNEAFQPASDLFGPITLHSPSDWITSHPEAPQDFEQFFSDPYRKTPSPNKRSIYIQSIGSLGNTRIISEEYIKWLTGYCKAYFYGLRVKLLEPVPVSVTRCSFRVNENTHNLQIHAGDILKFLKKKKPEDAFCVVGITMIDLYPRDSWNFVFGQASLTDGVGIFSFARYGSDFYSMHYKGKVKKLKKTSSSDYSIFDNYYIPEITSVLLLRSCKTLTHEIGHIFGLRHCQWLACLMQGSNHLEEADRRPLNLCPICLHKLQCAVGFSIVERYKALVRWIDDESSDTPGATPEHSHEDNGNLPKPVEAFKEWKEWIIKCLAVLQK
UniProt Q9BT30: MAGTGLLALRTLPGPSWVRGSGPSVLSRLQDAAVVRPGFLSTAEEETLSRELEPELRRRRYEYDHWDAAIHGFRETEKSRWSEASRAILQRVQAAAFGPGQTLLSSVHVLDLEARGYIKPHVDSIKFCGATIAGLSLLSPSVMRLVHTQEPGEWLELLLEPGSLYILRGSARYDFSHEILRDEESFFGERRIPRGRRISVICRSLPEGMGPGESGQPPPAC
UniProt Q8N7X0: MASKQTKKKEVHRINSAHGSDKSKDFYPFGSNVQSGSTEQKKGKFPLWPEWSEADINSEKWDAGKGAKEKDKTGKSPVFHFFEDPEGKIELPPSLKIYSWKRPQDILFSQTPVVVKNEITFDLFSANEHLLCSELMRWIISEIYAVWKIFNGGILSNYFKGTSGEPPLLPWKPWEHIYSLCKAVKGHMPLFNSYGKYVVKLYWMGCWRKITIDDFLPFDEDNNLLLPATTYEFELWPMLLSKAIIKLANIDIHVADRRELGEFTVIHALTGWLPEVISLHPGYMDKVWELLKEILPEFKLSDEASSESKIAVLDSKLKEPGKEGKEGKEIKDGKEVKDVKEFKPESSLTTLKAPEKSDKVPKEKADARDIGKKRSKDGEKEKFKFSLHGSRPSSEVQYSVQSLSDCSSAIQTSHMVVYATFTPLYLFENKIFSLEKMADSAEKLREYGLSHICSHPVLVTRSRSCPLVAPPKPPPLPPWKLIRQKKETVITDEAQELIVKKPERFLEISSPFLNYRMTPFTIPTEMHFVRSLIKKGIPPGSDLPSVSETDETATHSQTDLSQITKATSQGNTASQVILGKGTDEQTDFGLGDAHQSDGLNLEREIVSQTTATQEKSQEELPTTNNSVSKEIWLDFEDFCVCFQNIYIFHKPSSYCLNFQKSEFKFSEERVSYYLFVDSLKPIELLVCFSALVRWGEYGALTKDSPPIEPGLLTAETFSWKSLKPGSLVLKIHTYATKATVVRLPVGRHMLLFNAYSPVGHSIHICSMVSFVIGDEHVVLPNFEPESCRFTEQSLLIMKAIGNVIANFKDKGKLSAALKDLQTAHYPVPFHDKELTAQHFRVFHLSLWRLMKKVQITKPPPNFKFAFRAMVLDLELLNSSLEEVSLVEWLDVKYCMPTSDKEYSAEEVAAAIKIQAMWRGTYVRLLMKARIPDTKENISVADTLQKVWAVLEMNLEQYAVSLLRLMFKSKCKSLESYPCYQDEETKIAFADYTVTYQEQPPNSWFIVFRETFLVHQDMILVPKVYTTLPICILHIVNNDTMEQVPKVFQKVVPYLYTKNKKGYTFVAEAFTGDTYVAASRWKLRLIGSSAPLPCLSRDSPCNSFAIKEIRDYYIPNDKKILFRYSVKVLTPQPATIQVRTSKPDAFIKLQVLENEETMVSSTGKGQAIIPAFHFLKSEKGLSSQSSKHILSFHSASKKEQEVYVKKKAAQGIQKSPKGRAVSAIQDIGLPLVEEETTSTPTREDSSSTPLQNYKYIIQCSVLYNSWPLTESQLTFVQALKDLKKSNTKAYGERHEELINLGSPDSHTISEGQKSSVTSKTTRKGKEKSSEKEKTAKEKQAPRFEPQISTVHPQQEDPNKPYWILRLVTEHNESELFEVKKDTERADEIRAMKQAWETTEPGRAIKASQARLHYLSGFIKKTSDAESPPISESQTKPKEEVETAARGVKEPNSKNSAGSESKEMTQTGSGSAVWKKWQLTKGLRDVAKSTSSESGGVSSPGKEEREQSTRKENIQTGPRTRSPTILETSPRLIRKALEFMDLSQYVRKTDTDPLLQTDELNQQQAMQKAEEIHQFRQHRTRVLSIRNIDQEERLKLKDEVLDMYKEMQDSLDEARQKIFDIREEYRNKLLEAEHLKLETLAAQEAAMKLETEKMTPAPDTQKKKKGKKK
UniProt Q3MIX3: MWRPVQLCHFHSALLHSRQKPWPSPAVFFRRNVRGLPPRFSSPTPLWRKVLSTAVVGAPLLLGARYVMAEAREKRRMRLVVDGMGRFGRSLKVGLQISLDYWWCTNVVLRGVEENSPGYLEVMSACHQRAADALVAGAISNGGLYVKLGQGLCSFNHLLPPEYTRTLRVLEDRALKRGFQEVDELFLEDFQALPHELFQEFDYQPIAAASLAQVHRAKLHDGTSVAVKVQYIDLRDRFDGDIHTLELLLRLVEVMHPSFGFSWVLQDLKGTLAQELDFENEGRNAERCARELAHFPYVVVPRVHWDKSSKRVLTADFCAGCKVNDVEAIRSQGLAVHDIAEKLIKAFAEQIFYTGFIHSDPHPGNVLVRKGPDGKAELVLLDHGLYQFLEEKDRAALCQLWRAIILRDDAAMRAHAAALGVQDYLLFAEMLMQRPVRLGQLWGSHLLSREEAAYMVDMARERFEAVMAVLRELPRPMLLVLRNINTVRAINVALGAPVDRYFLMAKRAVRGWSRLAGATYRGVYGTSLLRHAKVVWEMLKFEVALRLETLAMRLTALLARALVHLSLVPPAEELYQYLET
UniProt Q6QNK2: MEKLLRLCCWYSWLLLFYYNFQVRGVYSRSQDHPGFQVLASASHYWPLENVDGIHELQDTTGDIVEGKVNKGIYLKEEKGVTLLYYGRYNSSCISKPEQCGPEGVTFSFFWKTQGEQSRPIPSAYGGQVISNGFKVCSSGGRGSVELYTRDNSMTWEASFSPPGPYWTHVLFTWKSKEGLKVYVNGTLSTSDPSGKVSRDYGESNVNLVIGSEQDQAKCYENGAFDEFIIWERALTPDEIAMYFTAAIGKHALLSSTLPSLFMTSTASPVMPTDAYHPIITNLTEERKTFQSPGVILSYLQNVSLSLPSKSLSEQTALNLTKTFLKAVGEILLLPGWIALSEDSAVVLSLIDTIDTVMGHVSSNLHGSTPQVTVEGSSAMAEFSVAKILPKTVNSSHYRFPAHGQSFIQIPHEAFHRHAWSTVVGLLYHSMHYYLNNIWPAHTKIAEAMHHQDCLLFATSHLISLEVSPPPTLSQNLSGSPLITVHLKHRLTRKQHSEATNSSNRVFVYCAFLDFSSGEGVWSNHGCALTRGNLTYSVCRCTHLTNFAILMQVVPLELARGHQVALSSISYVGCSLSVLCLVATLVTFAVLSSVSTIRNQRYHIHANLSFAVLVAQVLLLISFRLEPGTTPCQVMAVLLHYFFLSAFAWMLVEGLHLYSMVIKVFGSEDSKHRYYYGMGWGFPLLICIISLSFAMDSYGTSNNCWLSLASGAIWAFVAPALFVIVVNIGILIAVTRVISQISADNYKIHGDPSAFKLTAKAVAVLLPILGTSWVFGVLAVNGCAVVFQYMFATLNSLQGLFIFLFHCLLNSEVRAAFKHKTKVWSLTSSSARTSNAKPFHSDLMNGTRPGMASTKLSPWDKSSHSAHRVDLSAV
UniProt Q9NZD4: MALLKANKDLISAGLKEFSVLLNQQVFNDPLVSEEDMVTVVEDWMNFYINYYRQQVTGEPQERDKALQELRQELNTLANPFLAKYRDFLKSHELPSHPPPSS
UniProt O60266: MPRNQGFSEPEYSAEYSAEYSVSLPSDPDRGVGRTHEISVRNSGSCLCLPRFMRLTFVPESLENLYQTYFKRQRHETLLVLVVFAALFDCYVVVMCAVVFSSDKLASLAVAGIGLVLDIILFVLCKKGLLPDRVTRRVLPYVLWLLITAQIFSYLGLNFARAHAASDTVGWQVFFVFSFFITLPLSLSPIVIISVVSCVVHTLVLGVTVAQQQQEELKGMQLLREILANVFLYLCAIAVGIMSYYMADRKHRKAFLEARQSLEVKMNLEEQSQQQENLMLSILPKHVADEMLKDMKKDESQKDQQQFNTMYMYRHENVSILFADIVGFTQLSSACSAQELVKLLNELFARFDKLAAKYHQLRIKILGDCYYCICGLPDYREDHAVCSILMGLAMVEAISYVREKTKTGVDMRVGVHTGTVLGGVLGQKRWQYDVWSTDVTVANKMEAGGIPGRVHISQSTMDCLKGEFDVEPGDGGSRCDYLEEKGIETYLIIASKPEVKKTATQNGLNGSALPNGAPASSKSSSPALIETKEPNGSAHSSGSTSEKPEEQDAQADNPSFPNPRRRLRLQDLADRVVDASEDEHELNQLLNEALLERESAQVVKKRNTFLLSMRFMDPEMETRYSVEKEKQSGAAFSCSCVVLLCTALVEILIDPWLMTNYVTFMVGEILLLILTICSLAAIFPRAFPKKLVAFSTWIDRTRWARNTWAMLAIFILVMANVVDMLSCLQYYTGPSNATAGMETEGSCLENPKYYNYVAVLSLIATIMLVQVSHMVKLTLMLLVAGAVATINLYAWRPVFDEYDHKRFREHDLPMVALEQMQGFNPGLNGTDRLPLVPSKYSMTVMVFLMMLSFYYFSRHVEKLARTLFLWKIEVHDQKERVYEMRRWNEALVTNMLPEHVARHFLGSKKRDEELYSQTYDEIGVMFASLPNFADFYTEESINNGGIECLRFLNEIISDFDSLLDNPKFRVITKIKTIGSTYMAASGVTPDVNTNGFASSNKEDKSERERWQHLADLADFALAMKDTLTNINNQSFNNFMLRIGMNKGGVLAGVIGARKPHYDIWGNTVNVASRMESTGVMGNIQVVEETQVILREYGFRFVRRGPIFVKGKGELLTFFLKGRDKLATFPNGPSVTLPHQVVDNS
UniProt Q53H80, whole entry, looked up: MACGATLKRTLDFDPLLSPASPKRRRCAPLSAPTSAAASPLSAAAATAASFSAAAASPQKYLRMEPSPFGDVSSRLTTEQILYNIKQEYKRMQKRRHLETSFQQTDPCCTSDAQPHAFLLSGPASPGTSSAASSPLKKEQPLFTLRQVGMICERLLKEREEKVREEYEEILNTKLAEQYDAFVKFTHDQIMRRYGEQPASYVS

[2] = compound: Cn1cc(-c2ccc3c(c2)CCN3C(=O)Cc2cccc(C(F)(F)F)c2)c2c(N)ncnc21
Method in brief: as §1

[3] = compound: NC(=O)Nc1cc(-c2cccc(F)c2)sc1C(=O)N[C@H]1CCCNC1
Method in brief: as §1

entinostat = compound: Nc1ccccc1NC(=O)c1ccc(CNC(=O)OCc2cccnc2)cc1 [entinostat]
Method in brief: as §1

vorinostat = compound: O=C(CCCCCCC(=O)Nc1ccccc1)NO [vorinostat]
Method in brief: as §1

citarinostat = compound: O=C(CCCCCCNC(=O)c1cnc(N(c2ccccc2)c2ccccc2Cl)nc1)NO [citarinostat]
Method in brief: as §1

[4] = compound: c1cc(OCCN2CCCCC2)cc(-c2n[nH]c3ccc(-c4nnc[nH]4)cc23)c1
Method in brief: as §1

dasatinib = compound: Cc1nc(Nc2ncc(C(=O)Nc3c(C)cccc3Cl)s2)cc(N2CCN(CCO)CC2)n1 [dasatinib]
Method in brief: as §1

[5] = compound: Cn1cc(-c2ccc3nnc(C(F)(F)c4ccc5ncccc5c4)n3n2)cn1
Method in brief: as §1

mubritinib = compound: FC(F)(F)c1ccc(/C=C/c2nc(COc3ccc(CCCCn4ccnn4)cc3)co2)cc1 [mubritinib]
Method in brief: as §1

[6] = compound: NC1(c2ccc(-c3nc4ccn5c(=O)[nH]nc5c4cc3-c3ccccc3)cc2)CCC1
Method in brief: as §1

[7] = compound: NCC(=O)Nc1ccc(-n2nc(C(F)(F)F)cc2-c2ccc3c(ccc4ccccc43)c2)cc1
Method in brief: as §1

silmitasertib = compound: O=C(O)c1ccc2c(c1)nc(Nc1cccc(Cl)c1)c1ccncc12 [silmitasertib]
Method in brief: as §1

tipifarnib = compound: Cn1cncc1[C@@](N)(c1ccc(Cl)cc1)c1ccc2c(c1)c(-c1cccc(Cl)c1)cc(=O)n2C [tipifarnib]
Method in brief: as §1

[8] = compound: NC(=O)c1cnc(N[C@@H]2CCCC[C@@H]2N)nc1Nc1cccc(-n2nccn2)c1
Method in brief: as §1

[9] = compound: O=C1NC(=O)C(c2cnc3ccccn23)=C1c1cn2c3c(cc(F)cc13)CN(C(=O)N1CCCCC1)CC2
Method in brief: as §1

nilotinib = compound: Cc1cn(-c2cc(NC(=O)c3ccc(C)c(Nc4nccc(-c5cccnc5)n4)c3)cc(C(F)(F)F)c2)cn1 [nilotinib]
Method in brief: as §1

[10] = compound: Cc1nc(Nc2n[nH]c3c2CN(C(=O)N[C@H](CN(C)C)c2ccccc2)C3(C)C)c2sccc2n1
Method in brief: as §1

[11] = compound: Cc1ncc(-c2ccnc(Nc3ccc(S(C)(=O)=O)cc3)n2)n1C(C)C
Method in brief: as §1

bafetinib = compound: Cc1ccc(NC(=O)c2ccc(CN3CC[C@H](N(C)C)C3)c(C(F)(F)F)c2)cc1Nc1nccc(-c2cncnc2)n1 [bafetinib]
Method in brief: as §1

Measured: log2 fold change

AKAP11 (UniProt Q9UKA4)
inactive: [1] 0.04 | [2] -0.445 | [3] 0.047 | entinostat -0.03 | vorinostat -0.071 | citarinostat -0.222 | [4] 0.074

AGTPBP1 isoform 3 (UniProt Q9UPW5)
inactive: dasatinib -0.105 | [5] -0.098 | mubritinib 0.246 | [6] -0.623 | [7] -0.355 | silmitasertib 0.301

ADD3 isoform 2 (UniProt Q9UEY8)
inactive: [1] 0.05 | dasatinib -0.116 | [2] 0.152 | [5] -0.026 | tipifarnib -0.067 | mubritinib -0.007 | [3] 0.03 | [8] 0.059 | [6] -0.009 | [7] -0.002 | entinostat -0.018 | vorinostat -0.119 | citarinostat 0.08 | silmitasertib -0.002 | [9] 0.019 | [4] -0.02

ALDH7A1 (UniProt P49419)
inactive: [1] 0.111 | mubritinib -0.182 | [3] 0.11 | [6] -0.008 | entinostat 0.029 | vorinostat -0.075 | citarinostat -0.002 | silmitasertib 0.107 | [9] -0.053 | [4] 0.291

ADNP (UniProt Q9H2P0)
inactive: [1] -0.271 | nilotinib 0.057 | [10] 0.025 | [11] -0.102 | mubritinib -0.435 | [3] -0.06 | [8] -0.069 | [6] 0.05 | entinostat -0.002 | vorinostat 0.001 | silmitasertib -0.237

ADCY7 (UniProt P51828)
inactive: [1] -0.254 | nilotinib 0.017 | [10] -0.075 | dasatinib 0.01 | [11] 0.186 | [2] -0.181 | [5] 0.185 | [8] 0.164 | vorinostat 0.519 | [9] -0.063

ANAPC13 (UniProt Q9BS18)
inactive: [9] -0.311

ALDH1L1 isoform 3 (UniProt O75891)
inactive: [3] -0.07 | entinostat 0.17

AGTRAP isoform 2 (UniProt Q6RW13)
inactive: [1] -0.053 | vorinostat 0.007 | citarinostat -0.039 | [4] -0.016

ADGRL1 (UniProt O94910)
inactive: [1] 0.082 | vorinostat 0.074

AMZ2 (UniProt Q86W34)
inactive: dasatinib -0.032 | [5] -0.1 | tipifarnib 0.066 | mubritinib -0.141 | [3] 0.021 | [6] -0.049 | entinostat 0.027 | silmitasertib -0.104 | [9] -0.075

AKAP9 isoform 6 (UniProt Q99996)
inactive: nilotinib 0.007 | [10] -0.084 | [11] 0.324 | [2] -0.107 | [5] 0.135 | mubritinib 0.141 | [6] 0.007 | citarinostat -0.1 | silmitasertib -0.014 | [9] -0.218 | [4] -0.015

ALS2 (UniProt Q96Q42)
inactive: [5] 0.173 | tipifarnib 0 | [9] 0.309

AFMID isoform 2 (UniProt Q63HM1)
inactive: mubritinib 0.347 | [6] -0.196 | [7] -0.257 | silmitasertib 0.074

ALKBH7 (UniProt Q9BT30)
inactive: [1] -0.076 | [2] -0.244 | [5] 0.015 | vorinostat 0.212

ADGB (UniProt Q8N7X0)
inactive: [1] -0.108 | tipifarnib 0.113 | mubritinib 0.116 | [6] 0.193 | vorinostat -0.326 | citarinostat -0.188 | silmitasertib -0.302 | [9] -0.669 | [4] 0.142

ADCK5 (UniProt Q3MIX3)
inactive: [5] 0.02 | [3] 0.034 | [7] -0.358 | entinostat -0.119 | citarinostat -0.428 | [9] 0.259 | [4] 0.047

7 successive records from above, quoted:
ALDH1L1 isoform 3 (UniProt O75891)
inactive: [3] -0.07 | entinostat 0.17

AGTRAP isoform 2 (UniProt Q6RW13)
inactive: [1] -0.053 | vorinostat 0.007 | citarinostat -0.039 | [4] -0.016

ADGRL1 (UniProt O94910)
inactive: [1] 0.082 | vorinostat 0.074

AMZ2 (UniProt Q86W34)
inactive: dasatinib -0.032 | [5] -0.1 | tipifarnib 0.066 | mubritinib -0.141 | [3] 0.021 | [6] -0.049 | entinostat 0.027 | silmitasertib -0.104 | [9] -0.075

AKAP9 isoform 6 (UniProt Q99996)
inactive: nilotinib 0.007 | [10] -0.084 | [11] 0.324 | [2] -0.107 | [5] 0.135 | mubritinib 0.141 | [6] 0.007 | citarinostat -0.1 | silmitasertib -0.014 | [9] -0.218 | [4] -0.015

ALS2 (UniProt Q96Q42)
inactive: [5] 0.173 | tipifarnib 0 | [9] 0.309

AFMID isoform 2 (UniProt Q63HM1)
inactive: mubritinib 0.347 | [6] -0.196 | [7] -0.257 | silmitasertib 0.074

More entries

AIG1 (UniProt Q9NVV5)
inactive: [1] -0.009 | dasatinib 0.308 | [8] -0.253 | vorinostat 0.18

AKNA (UniProt Q7Z591)
inactive: [2] -0.134 | tipifarnib 0.215 | [3] -0.069
active: entinostat 1.72

AMMECR1 (UniProt Q9Y4X0)
inactive: dasatinib -0.193 | [2] -0.014 | [5] -0.124 | [8] -0.166 | [7] -0.205 | [9] 0.069

ADGRD1 isoform 4 (UniProt Q6QNK2)
inactive: dasatinib -0.023 | [2] -0.223 | mubritinib -0.508 | [8] -0.12 | [6] -0.153 | [7] -0.192 | citarinostat 0.16 | silmitasertib 0.102 | [4] -0.406

AGAP1 (UniProt Q9UPQ3)
inactive: dasatinib -0.122 | [2] -0.005 | [5] 0.053 | [7] 0.025

AHSP (UniProt Q9NZD4)
inactive: nilotinib 0.153 | [10] -0.115 | [11] 0.004 | [5] 0.15 | mubritinib 0.024 | [6] 0.044 | silmitasertib -0.088

ADPRM (UniProt Q3LIE5)
inactive: bafetinib -0.12 | [3] -0.135 | entinostat -0.053

ADCY3 (UniProt O60266)
inactive: [1] 0.003 | dasatinib -0.218 | [2] 0.109 | [5] 0.091 | tipifarnib -0.056 | [3] -0.172 | [8] -0.118 | [7] -0.121 | entinostat 0.04 | vorinostat 0.092

ANAPC15 isoform 2 (UniProt P60006)
inactive: [2] -0.116 | tipifarnib 0.038 | [8] 0.077 | [7] -0.034 | citarinostat -0.065 | [4] -0.171

AKIRIN2 (UniProt Q53H80)
inactive: [1] 0.05 | nilotinib -0.082 | [10] -0.06 | dasatinib 0.025 | [11] -0.058 | [2] 0.011 | [5] 0.037 | tipifarnib 0.059 | mubritinib 0.027 | [3] 0.062 | [8] -0.055 | [6] -0.132 | [7] -0.087 | entinostat 0.044 | vorinostat 0.035 | citarinostat 0.015 | silmitasertib 0.026 | [9] 0.375 | [4] 0.019

Reference: the supplement of paper PMC10849652
